Record: PubChem BioAssay AID686943 (Drosophila RNAi Screening Center, 2013)

- Test: 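Search across the genome for regulators of signalling from receptor tyrosine kinase to ERK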 (primary screen)
- Cell system: Drosophila S2R+ haemocyte-like cells expressing YFP-tagged ERK (Rolled)
- Reagents: long dsRNA against Drosophila genes
- Treatment: insulin stimulation versus unstimulated cells; dose and duration not given
- Measurement: 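Per-plate z-scores of phospho-ERK immunostaining normalised to YFP-tagged ERK, measured with and without insulin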
- Reading the numbers: replicate 1, z-score of dpERK with insulin and replicate 2, z-score of dpERK with insulin: higher = more active ERK per ERK-YFP after insulin; replicate 1, z-score of dpERK under basal conditions: higher = more basal active ERK per ERK-YFP; replicate 1, z-score of ERK-YFP with insulin: higher = more YFP-tagged ERK signal
The screen tested about 23,000 reagents; this is an unselected part of those with a known target gene and a result. 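Extra replicates exist only for a retested subset of genes; insulin dose and duration not given; both raised and lowered dpERK matter.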 Reagents against one gene are numbered here. A plus sign joins genes that one reagent is predicted to hit. Reagent sequences are not shown. Not given: the amount of reagent, the time to read-out.

| target | dsRNA no. | replicate 1, z-score of dpERK with insulin | replicate 2, z-score of dpERK with insulin | replicate 1, z-score of dpERK under basal conditions | replicate 1, z-score of ERK-YFP with insulin |
| --- | --- | --- | --- | --- | --- |
| CG14227 | 1 | 1.06 | 0.66 | -0.97 | -0.88 |
| CG30325 | 1 | 1.09 | 1.39 | -0.34 | -0.1 |
| hebe | 1 | 0.54 | 0.84 | -0.02 | -0.23 |
| hebe | 2 | 0.15 | 0.64 | 0.84 | 0.43 |
| hebe | 3 | 1.28 | 0.75 | 1.3 | 0.75 |
| LysB | 1 | 0.4 | -0.14 | -0.38 | 0.02 |
| Sgs8 | 1 | -0.3 | -0.11 | 1.6 | 0.29 |
| CG8060 | 1 | -0.64 | 0.25 | 0.84 | 0.51 |
| CG9406 | 1 | -0.24 | 0.51 | 0.61 | 0.22 |
| CG42404 | 1 | -1.1 | -1.81 | 0.89 | 0.54 |
| CG7789 | 1 | -0.13 | 0.17 | 0.32 | 0.47 |
| CG30058 + CG34235 + CG34312 | 1 | 0.02 | -0.18 | -0.22 | -0.02 |
| Acp36DE | 1 | -0.03 | -0.44 | 0.23 | -0.57 |
| Edg78E | 1 | 0.28 | 0.56 | -0.34 | -0.06 |
| CG31019 | 1 | -0.57 | -0.19 | -0.89 | 0.89 |
| obst-I | 1 | -0.08 | -0.91 | 0.16 | 0.17 |
| CG7335 | 1 | 0.61 | 0.15 | 0 | 0.02 |
| CG13814 (retired record) | 1 | 0.65 | -0.48 | 1.73 | -0.22 |
| CG14811 | 1 | 0.46 | -0.36 | -0.25 | 0.19 |
| CG1544 | 1 | -1.18 | 0.62 | -0.43 | -0.9 |
| CG1440 | 1 | 1 | 0.08 | 0.29 | 0.28 |
| Hsl | 1 | -0.39 | -0.56 | -0.93 | 0.86 |
| CG8958 | 1 | 0.07 | -0.39 | -0.08 | 0.18 |
| CG7715 | 1 | 0.4 | 1.52 | 0.57 | 0.05 |
| Skp2 + CG1103 | 1 | 0.94 | -0.02 | 0.24 | -0.87 |
| Skp2 + CG1103 | 2 | 0.99 | 0.11 | 2.06 | -1.28 |
| Trxr1 | 1 | -0.05 | 0.7 | -0.38 | 0.57 |
| Trxr1 | 2 | 0.69 | 1.12 | -0.61 | -0.12 |
| ATPsyngamma | 1 | -0.06 | -0.33 | -0.27 | -1.18 |
| Neb-cGP | 1 | 0.1 | -0.72 | 1.84 | 0.42 |
| CG6236 | 1 | 0.12 | -0.04 | -0.86 | 0.74 |
| Charon | 1 | 0.29 | 0.79 | -0.92 | -1.63 |
| PGRP-SC1a | 1 | -0.13 | 0.29 | -0.39 | 0.02 |
| lili | 1 | -0.04 | 0.26 | 0.08 | -0.84 |
| vvl | 1 | 0.61 | 0.13 | -0.11 | 0 |
| CG43338 | 1 | -2.25 | -3.6 | -2.17 | 1.02 |
| pcm | 1 | -0.13 | -0.39 | -0.14 | -1.06 |
| Cad96Ca | 1 | 1.09 | 0.15 | -0.42 | -1.93 |
| Cad96Ca | 2 | -0.81 | 0.1 | -0.07 | 0.2 |
| CG11629 | 1 | 0.38 | 0.19 | -0.56 | -0.09 |
| CG43131 | 1 | 0.18 | -0.55 | 0.43 | 0.28 |
| lncRNA:CR42862 + CG33229 | 1 | -0.01 | 0.25 | -1.04 | 0.79 |
| qkr58E-3 | 1 | 0.12 | 0.99 | 1.94 | 0.48 |
| Poxm | 1 | 0.93 | 0.38 | -0.07 | -0.1 |
| Poxm | 2 | 0.57 | 0.41 | 0.18 | 0.43 |
| RIOK2 | 1 | 0.24 | 0.14 | -0.08 | -0.34 |
| TotF | 1 | -0.65 | -0.78 | -0.58 | 0.34 |
| Prdm13 | 1 | -0.14 | -0.13 | -0.74 | 0.38 |
| CG15394 | 1 | 0.39 | 0.58 | -0.59 | -0.2 |
| CG11695 | 1 | -0.88 | -0.24 | 0.25 | 0.86 |
| Smu1 | 1 | -0.22 | 0.99 | 0.09 | -0.29 |
| CG9815 | 1 | 0.93 | 0.61 | 0.2 | -1.45 |
| CG14712 | 1 | 0.65 | 1.2 | 5.98 | -3.79 |
| Mco1 | 1 | 0.61 | 0.15 | 0.86 | 0.02 |
| CG1847 | 1 | -0.68 | -0.03 | -0.07 | 0.6 |
| ZnT33D | 1 | 0.35 | -0.11 | -0.25 | 0.39 |
| RpL9 | 1 | -2.35 | -1.14 | -3.49 | -2.56 |
